The target of test [1] is HDAC1 (endogenous or tagged not stated; immunoprecipitates for mass spectrometry and co-IP with the PFK isoforms) (human) (UniProt Q13547). Description: co-IP; co-IP of PFKL, PFKM or PFKP with HDAC1.
Test [2] has as its target T1, PFKL (endogenous or tagged not stated; immunoprecipitates for mass spectrometry, co-IP of the PFK isoforms, purified PFKL added to HDAC1) (human) (UniProt P17858).
T1 sequence: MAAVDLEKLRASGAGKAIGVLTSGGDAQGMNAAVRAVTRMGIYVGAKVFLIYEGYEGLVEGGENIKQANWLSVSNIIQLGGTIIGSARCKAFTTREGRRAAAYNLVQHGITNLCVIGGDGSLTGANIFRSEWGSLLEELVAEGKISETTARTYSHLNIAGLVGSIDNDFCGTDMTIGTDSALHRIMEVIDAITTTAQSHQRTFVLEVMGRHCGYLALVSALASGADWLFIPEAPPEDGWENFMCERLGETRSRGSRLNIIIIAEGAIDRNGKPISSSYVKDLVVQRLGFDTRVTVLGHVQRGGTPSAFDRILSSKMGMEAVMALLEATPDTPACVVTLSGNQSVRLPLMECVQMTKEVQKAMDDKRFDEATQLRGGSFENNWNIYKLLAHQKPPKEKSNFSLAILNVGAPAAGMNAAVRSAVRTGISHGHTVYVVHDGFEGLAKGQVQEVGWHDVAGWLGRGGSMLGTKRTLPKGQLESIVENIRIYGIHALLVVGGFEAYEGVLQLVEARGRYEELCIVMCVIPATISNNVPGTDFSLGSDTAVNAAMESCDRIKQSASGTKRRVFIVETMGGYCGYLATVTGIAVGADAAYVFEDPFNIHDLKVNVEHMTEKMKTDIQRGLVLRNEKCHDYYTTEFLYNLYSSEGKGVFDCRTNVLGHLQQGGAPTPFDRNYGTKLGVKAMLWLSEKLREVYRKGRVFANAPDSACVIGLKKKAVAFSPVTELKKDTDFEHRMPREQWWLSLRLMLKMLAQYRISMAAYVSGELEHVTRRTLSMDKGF
Description: co-IP; co-IP of the three PFK isoforms with each other in TFK cells.

Protein sequences, listed by entry. Tags and fused reporters are not part of them.
UniProt Q13547: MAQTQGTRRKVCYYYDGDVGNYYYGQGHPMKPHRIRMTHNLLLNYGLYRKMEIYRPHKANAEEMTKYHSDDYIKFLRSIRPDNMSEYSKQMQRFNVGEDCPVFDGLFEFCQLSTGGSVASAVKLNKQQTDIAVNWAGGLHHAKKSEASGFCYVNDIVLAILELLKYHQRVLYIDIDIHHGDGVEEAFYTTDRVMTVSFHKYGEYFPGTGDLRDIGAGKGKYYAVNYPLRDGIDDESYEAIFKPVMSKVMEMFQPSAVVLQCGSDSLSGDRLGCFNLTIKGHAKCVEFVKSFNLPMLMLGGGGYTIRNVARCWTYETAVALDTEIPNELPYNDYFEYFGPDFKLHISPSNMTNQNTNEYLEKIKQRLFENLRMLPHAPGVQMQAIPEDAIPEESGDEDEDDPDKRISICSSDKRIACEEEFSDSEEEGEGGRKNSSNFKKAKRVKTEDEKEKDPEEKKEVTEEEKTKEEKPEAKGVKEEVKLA
UniProt Q92769: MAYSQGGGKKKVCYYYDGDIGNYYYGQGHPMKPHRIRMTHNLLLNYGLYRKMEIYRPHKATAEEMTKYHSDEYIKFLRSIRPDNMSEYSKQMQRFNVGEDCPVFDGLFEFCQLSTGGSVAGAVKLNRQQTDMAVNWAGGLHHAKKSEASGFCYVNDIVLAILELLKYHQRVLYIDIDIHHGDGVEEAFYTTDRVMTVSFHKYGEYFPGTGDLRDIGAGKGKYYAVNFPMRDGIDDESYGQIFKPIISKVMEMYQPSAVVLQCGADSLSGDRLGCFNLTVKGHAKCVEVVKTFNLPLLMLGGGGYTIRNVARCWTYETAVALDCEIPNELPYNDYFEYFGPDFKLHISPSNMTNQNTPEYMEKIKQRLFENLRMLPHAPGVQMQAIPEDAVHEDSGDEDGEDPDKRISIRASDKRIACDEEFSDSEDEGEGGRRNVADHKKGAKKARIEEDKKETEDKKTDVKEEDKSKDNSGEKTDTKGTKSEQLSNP
UniProt O15379: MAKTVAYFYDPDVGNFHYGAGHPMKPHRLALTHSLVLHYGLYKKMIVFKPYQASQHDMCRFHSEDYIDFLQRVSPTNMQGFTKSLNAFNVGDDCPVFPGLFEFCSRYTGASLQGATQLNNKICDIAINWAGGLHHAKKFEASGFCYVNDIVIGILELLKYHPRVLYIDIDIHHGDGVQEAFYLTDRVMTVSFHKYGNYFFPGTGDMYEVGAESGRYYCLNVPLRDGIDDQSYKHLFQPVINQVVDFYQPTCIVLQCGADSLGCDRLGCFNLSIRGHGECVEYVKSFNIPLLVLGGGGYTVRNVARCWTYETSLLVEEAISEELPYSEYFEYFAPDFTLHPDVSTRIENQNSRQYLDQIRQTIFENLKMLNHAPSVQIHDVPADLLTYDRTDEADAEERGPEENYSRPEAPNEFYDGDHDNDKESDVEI

Test [3] concerns the target T2, GST-PFKL, recombinant (human) (UniProt P17858).
T2 sequence: T1 sequence
Description: pull-down; GST-PFKL on glutathione beads (1 h, 4 °C), His-HDAC protein added (1.5 h, 4 °C), five washes, glutathione elution; Coomassie staining and immunoblot; both purified.

The target in another test is His-HDAC2, recombinant (UniProt Q92769). The test can be described thus: SPR; OpenSPR (Nicoya), 25 °C; His-HDAC proteins immobilised on an NTA sensor chip (~16000 RU), GST-PFKL injected as analyte; PBS-P buffer (10 mM phosphate, 137 mM NaCl, 2.7 mM KCl, 0.05% surfactant P20); 20 μL/min, 240 s contact, 360 s dissociation; 1:1 binding model; both purified. In general terms: Surface plasmon resonance follows binding to a sensor surface in real time, without labels.

The next test addresses T3, His-HDAC8, recombinant (UniProt Q9BY41).
T3 sequence: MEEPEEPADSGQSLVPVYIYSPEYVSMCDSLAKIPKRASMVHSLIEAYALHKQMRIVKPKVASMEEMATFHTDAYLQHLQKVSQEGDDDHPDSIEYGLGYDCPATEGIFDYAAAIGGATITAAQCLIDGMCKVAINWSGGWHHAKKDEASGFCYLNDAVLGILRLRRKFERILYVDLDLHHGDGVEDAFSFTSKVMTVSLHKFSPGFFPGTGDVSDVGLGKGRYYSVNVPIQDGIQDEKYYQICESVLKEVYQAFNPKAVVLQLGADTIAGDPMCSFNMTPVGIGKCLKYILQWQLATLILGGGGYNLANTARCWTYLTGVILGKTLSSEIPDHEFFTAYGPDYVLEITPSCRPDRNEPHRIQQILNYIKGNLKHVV
Described as above.

The next test has as its target His-HDAC3, recombinant (UniProt O15379). The description is as above.

Our source for the binding values is PMC12518634, “The noncanonical function of liver-type phosphofructokinase potentiates the efficacy of HDAC inhibitors in cancer” (Signal Transduction and Targeted Therapy, 2025).

These are yes or no findings as the source states them, for the method shown. For part of these data: In cells and extracts the contact can be indirect. Some entries that bind do so weakly or less than the wild type. Sequences can lack the tags named with a protein.

B1: PFKP (platelet-type phosphofructokinase) (enzyme, UniProt Q01813 1-784)
chain: MDADDSRAPKGSLRKFLEHLSGAGKAIGVLTSGGDAQGMNAAVRAVVRMGIYVGAKVYFIYEGYQGMVDGGSNIAEADWESVSSILQVGGTIIGSARCQAFRTREGRLKAACNLLQRGITNLCVIGGDGSLTGANLFRKEWSGLLEELARNGQIDKEAVQKYAYLNVVGMVGSIDNDFCGTDMTIGTDSALHRIIEVVDAIMTTAQSHQRTFVLEVMGRHCGYLALVSALACGADWVFLPESPPEEGWEEQMCVKLSENRARKKRLNIIIVAEGAIDTQNKPITSEKIKELVVTQLGYDTRVTILGHVQRGGTPSAFDRILASRMGVEAVIALLEATPDTPACVVSLNGNHAVRLPLMECVQMTQDVQKAMDERRFQDAVRLRGRSFAGNLNTYKRLAIKLPDDQIPKTNCNVAVINVGAPAAGMNAAVRSAVRVGIADGHRMLAIYDGFDGFAKGQIKEIGWTDVGGWTGQGGSILGTKRVLPGKYLEEIATQMRTHSINALLIIGGFEAYLGLLELSAAREKHEEFCVPMVMVPATVSNNVPGSDFSIGADTALNTITDTCDRIKQSASGTKRRVFIIETMGGYCGYLANMGGLAAGADAAYIFEEPFDIRDLQSNVEHLTEKMKTTIQRGLVLRNESCSENYTTDFIYQLYSEEGKGVFDCRKNVLGHMQQGGAPSPFDRNFGTKISARAMEWITAKLKEARGRGKKFTTDDSICVLGISKRNVIFQPVAELKKQTDFEHRIPKEQWWLKLRPLMKILAKYKASYDVSDSGQLEHVQPWSV
Turning to B1, the binding entry in test [1] and in test [2] was “no binding” each time.

B2: PFKM (muscle-type phosphofructokinase) (enzyme, UniProt P08237 1-780)
chain: MTHEEHHAAKTLGIGKAIAVLTSGGDAQGMNAAVRAVVRVGIFTGARVFFVHEGYQGLVDGGDHIKEATWESVSMMLQLGGTVIGSARCKDFREREGRLRAAYNLVKRGITNLCVIGGDGSLTGADTFRSEWSDLLSDLQKAGKITDEEATKSSYLNIVGLVGSIDNDFCGTDMTIGTDSALHRIMEIVDAITTTAQSHQRTFVLEVMGRHCGYLALVTSLSCGADWVFIPECPPDDDWEEHLCRRLSETRTRGSRLNIIIVAEGAIDKNGKPITSEDIKNLVVKRLGYDTRVTVLGHVQRGGTPSAFDRILGSRMGVEAVMALLEGTPDTPACVVSLSGNQAVRLPLMECVQVTKDVTKAMDEKKFDEALKLRGRSFMNNWEVYKLLAHVRPPVSKSGSHTVAVMNVGAPAAGMNAAVRSTVRIGLIQGNRVLVVHDGFEGLAKGQIEEAGWSYVGGWTGQGGSKLGTKRTLPKKSFEQISANITKFNIQGLVIIGGFEAYTGGLELMEGRKQFDELCIPFVVIPATVSNNVPGSDFSVGADTALNTICTTCDRIKQSAAGTKRRVFIIETMGGYCGYLATMAGLAAGADAAYIFEEPFTIRDLQANVEHLVQKMKTTVKRGLVLRNEKCNENYTTDFIFNLYSEEGKGIFDSRKNVLGHMQQGGSPTPFDRNFATKMGAKAMNWMSGKIKESYRNGRIFANTPDSGCVLGMRKRALVFQPVAELKDQTDFEHRIPKEQWWLKLRPILKILAKYEIDLDTSDHAHLEHITRKRSGEAAV
For the molecule B2, the binding entry in test [1] is given as “no binding”; in test [2], “binds weakly”.

B3: His-HDAC8, recombinant (enzyme, UniProt Q9BY41 1-377)
chain: T3 sequence
On to B3, for which the binding result in test [3] was “binds”.

B4: GST-PFKL, recombinant (enzyme, UniProt P17858 1-780)
chain: T1 sequence
B4: the binding result with His-HDAC2, recombinant was “binds”; with His-HDAC8, recombinant, “binds”; with His-HDAC3, recombinant it was “binds”.

B5: PFKL (endogenous or tagged not stated; immunoprecipitates for mass spectrometry, co-IP of the PFK isoforms, purified PFKL added to HDAC1) (enzyme, UniProt P17858 1-780)
chain: T1 sequence
For the molecule B5, in test [1], the binding entry is “binds”.
